# Reference: article doi:10.1101/149351
# Sequences of proteins named here, by UniProt entry; tags and fusion partners are left off.
# UniProt P35222: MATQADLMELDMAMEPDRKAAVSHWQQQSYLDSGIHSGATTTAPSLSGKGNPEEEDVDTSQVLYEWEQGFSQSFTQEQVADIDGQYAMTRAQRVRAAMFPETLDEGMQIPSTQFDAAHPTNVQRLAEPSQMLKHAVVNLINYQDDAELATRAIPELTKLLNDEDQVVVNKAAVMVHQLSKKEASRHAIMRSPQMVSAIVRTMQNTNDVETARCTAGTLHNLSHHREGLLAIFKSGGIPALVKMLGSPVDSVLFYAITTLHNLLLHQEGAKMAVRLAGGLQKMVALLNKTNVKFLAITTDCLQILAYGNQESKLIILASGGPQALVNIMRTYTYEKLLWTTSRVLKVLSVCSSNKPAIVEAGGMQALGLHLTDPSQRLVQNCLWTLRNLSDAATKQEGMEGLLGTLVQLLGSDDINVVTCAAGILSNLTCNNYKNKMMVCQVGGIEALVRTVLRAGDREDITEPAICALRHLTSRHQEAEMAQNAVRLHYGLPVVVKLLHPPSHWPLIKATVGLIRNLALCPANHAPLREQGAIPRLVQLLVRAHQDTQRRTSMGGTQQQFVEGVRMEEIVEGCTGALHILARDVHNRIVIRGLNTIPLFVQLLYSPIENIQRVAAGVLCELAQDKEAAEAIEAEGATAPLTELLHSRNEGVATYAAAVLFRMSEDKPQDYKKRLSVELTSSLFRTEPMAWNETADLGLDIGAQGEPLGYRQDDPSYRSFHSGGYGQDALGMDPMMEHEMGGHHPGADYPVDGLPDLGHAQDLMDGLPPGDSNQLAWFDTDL
# UniProt Q9P219: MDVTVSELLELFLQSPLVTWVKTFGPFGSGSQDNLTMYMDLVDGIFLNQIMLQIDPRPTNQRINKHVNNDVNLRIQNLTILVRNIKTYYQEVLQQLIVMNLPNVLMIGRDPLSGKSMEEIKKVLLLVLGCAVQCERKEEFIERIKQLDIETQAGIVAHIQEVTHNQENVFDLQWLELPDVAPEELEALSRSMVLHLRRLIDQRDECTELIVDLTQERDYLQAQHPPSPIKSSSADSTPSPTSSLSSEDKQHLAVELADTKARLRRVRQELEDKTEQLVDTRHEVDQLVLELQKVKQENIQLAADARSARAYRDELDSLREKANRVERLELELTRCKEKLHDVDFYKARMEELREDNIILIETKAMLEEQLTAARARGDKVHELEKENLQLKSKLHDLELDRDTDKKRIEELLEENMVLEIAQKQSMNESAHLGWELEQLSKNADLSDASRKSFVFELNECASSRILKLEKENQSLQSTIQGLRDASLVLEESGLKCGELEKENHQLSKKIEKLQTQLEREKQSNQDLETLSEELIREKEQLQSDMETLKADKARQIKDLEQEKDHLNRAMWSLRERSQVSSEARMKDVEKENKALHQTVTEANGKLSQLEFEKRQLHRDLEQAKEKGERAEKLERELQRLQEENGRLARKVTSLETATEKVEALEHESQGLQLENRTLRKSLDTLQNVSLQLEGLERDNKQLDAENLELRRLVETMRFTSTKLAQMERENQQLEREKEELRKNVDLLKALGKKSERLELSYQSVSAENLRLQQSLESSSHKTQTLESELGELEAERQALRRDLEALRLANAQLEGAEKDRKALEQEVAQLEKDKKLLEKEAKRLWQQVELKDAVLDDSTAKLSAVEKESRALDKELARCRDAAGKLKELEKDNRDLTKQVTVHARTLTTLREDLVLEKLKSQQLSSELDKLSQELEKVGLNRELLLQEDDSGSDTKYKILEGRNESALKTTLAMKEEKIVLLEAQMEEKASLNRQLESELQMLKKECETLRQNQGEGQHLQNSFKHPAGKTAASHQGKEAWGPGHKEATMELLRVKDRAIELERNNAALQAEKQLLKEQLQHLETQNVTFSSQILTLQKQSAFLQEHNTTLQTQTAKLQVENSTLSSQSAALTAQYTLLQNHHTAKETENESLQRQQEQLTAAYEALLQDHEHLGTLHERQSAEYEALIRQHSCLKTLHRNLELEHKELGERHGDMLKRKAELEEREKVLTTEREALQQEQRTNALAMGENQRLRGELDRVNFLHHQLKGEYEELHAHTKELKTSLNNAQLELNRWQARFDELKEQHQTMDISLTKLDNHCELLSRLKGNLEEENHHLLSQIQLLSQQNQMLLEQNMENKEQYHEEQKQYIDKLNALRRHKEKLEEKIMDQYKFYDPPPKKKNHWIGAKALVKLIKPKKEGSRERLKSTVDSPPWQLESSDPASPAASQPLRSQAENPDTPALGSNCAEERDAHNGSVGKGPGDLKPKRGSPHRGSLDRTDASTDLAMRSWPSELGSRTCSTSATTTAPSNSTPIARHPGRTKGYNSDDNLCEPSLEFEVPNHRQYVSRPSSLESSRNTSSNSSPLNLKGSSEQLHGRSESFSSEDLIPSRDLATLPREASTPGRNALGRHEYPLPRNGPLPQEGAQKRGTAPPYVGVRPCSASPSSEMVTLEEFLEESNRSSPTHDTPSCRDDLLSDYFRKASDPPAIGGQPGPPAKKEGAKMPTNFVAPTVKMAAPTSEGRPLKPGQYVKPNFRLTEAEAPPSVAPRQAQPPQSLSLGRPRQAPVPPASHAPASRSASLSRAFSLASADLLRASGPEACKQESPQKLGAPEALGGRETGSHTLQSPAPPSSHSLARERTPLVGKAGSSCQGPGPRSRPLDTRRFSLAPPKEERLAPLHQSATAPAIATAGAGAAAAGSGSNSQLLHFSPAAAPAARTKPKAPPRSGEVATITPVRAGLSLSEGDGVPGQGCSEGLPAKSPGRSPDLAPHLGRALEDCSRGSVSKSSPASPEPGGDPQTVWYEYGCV
# These are yes or no findings as the source states them, for the method shown. In cells and extracts the contact can be indirect. Some binding calls cover weakened binding; strength is not graded here.
# Biological target: β-catenin (human (endogenous in HeLa)) (UniProt P35222)
# Experiment: co-IP
substance,measurement,value
myc-Daple-WT (from UniProt Q9P219 1-2028),binding,binds
